# Reference: PubChem BioAssay AID493014 (National Center for Advancing Translational Sciences (NCATS), 2011)
# Some of the results follow. Shown are side measurements of this screen, not its main read-out; they come without a call. Most of these compounds were active or inconclusive in the main read-out, so they are no random draw. Potencies come from curve fits of mixed quality, noted in brackets.
# Assay: qHTS Assay to Find Inhibitors of Chronic Active B-Cell Receptor Signaling
# Conditions: ABC-DLBCL IkBa-CBG/CBR reporter, luminescence ratio (green luciferase fused to IkBa over red control in TMD8 lymphoma cells), 4 h
# Summary of the method: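 Cell line TMD8 (human ABC DLBCL), stably expressing tet-inducible CBG68-IkBa fusion and CBR; IMDM/0.5% FBS; cpd up to 46 uM; dox induction, 4 h, 37C/5% CO2; dual luminescence; green/red ratio; MG132 control.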
# [1] = measured here: CBR red luminescence, cell number
# [2] = measured here: IkBa-CBG green luminescence
Structure (SMILES),AC50 [1],AC50 [2]
O=C(Nc1ccc(S(=O)(=O)N2CCCC2)cc1)C1CCCCC1,"5.01 µM [rising, full curve]",–
CCOC(=O)C1=C(O)C(=O)N(c2ccc(S(N)(=O)=O)cc2)C1c1ccc([N+](=O)[O-])cc1 (stereo not drawn),"0.708 µM [rising, full curve, poor fit]",–
COc1ccc(OC)c(/C=N/n2c(-c3n[nH]c4c3CCC4)n[nH]c2=S)c1,"3.55 µM [falling, single point]",–
O=c1c2ccccc2nc(COc2ccccc2)n1/N=C/c1c[nH]c2ccccc12,"11.6 µM [falling, partial curve]",–
CCC(C(=O)OCC(=O)Nc1ccc(C)c(S(=O)(=O)N2CCOCC2)c1)c1ccccc1 (stereo not drawn),"0.58 µM [falling, full curve, poor fit]",–
Cc1ccc(NC(=O)COC(=O)c2cccc3c2C(=O)c2ccccc2C3=O)c(C)c1,"18.4 µM [rising, partial curve, poor fit]",–
CN(CC(=O)Nc1ccc2c(c1)OCCO2)Cc1nc2ccccc2c(=O)[nH]1,–,"23.1 µM [falling, partial curve, poor fit]"
Cc1ccc(CSc2nnc(SCC(=O)N/N=C/c3ccccc3OCC(=O)O)s2)cc1,"8.91 µM [falling, partial curve]",–
CCOC(=O)C1CCCCN1S(=O)(=O)c1ccc2c(c1)CC(C)N2C(=O)C1CCC1 (stereo not drawn),"4.47 µM [rising, single point]",–
Cc1cccc(Cc2c(C)nc3c(C(=O)NCc4ccco4)cnn3c2C)c1,"10 µM [falling, partial curve]",–
O=C1c2ccccc2C(=O)C12OC2c1cccc2ccccc12 (stereo not drawn),"29.1 µM [rising, single point]","25.9 µM [falling, single point]"
CCOC(=O)c1cc2cc3ccccc3cc2[nH]1,"17.8 µM [falling, single point]",–
COC(=O)c1ccc(COc2ccccc2/C=N/Nc2cccc(C(=O)O)c2)cc1,"22.4 µM [falling, single point]",–
CSc1nc(N)nc(C(C)C)n1,"14.1 µM [rising, partial curve, poor fit]",–
O=[N+]([O-])c1ccc(Nc2nc(NCCO)nc(N3CCCC3)n2)cc1,"35.5 µM [falling, single point]",–
N#C/C(=C\c1ccc(O)c(O)c1)C(=O)Nc1ccccc1,"18.4 µM [falling, single point]",–
Cc1ccccc1NC(=O)COc1nsnc1N1CCOCC1,"7.08 µM [falling, partial curve]",–

# Some of these compounds in order of number of heavy atoms, smallest number first:
Structure (SMILES),AC50 [1],AC50 [2]
CCOC(=O)c1cc2cc3ccccc3cc2[nH]1,"17.8 µM [falling, single point]",–
Cc1ccccc1NC(=O)COc1nsnc1N1CCOCC1,"7.08 µM [falling, partial curve]",–
CCC(C(=O)OCC(=O)Nc1ccc(C)c(S(=O)(=O)N2CCOCC2)c1)c1ccccc1 (stereo not drawn),"0.58 µM [falling, full curve, poor fit]",–
